Measurements taken from article PMC4827232.
These are yes or no findings as the source states them, for the method shown. For some assays here: In cells and extracts the contact can be indirect. Some entries that bind do so weakly or less than the wild type.

Chains of the proteins cited; added tags and fusions are not shown.
UniProt Q02789: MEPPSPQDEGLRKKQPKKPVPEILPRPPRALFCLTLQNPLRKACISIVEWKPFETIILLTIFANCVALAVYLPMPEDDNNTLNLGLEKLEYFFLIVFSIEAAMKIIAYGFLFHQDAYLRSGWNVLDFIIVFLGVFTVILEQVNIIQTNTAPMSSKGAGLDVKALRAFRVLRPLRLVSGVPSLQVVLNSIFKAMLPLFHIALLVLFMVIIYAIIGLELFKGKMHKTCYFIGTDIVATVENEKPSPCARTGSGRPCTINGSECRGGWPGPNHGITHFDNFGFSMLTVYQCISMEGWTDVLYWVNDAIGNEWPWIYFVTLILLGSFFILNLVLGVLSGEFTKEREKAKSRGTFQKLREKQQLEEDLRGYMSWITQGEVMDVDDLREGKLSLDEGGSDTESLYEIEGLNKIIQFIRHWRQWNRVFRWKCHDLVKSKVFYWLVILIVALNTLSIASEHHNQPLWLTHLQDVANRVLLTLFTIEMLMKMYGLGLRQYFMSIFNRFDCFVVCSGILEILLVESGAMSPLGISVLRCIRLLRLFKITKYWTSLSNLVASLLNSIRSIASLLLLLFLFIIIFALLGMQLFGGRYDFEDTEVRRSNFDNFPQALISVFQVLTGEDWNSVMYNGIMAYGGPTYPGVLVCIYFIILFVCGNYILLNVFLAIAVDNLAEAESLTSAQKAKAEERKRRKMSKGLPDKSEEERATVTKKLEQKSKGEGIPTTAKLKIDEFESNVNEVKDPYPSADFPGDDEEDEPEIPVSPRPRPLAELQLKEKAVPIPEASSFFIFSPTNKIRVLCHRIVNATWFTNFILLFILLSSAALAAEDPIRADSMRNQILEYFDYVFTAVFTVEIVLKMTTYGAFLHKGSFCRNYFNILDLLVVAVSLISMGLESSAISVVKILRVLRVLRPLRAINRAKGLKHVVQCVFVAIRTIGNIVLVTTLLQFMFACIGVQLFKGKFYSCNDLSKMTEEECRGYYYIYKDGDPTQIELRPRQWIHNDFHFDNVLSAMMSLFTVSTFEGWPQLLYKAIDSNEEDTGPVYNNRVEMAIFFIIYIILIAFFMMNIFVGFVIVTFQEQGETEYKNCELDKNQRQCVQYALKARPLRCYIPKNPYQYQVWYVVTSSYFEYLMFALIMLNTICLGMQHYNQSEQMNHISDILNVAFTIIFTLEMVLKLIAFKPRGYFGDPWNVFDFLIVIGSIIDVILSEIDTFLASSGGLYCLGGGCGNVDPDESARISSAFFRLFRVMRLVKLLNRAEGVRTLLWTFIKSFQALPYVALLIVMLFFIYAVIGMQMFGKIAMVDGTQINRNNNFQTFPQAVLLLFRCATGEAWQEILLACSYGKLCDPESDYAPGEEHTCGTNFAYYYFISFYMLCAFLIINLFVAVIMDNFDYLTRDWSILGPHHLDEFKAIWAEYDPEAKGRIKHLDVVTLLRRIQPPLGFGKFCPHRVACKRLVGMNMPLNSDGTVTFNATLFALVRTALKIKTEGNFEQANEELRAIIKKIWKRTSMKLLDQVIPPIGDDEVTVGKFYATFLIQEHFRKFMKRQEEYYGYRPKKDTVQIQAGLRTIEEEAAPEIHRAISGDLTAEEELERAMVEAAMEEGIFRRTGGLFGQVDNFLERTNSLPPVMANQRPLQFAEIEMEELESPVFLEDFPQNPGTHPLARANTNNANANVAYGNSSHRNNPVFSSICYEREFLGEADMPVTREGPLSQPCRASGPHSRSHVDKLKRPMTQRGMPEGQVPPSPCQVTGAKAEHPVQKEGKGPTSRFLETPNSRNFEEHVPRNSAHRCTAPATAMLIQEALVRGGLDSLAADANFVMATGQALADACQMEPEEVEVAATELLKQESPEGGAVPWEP
UniProt Q9JIP4: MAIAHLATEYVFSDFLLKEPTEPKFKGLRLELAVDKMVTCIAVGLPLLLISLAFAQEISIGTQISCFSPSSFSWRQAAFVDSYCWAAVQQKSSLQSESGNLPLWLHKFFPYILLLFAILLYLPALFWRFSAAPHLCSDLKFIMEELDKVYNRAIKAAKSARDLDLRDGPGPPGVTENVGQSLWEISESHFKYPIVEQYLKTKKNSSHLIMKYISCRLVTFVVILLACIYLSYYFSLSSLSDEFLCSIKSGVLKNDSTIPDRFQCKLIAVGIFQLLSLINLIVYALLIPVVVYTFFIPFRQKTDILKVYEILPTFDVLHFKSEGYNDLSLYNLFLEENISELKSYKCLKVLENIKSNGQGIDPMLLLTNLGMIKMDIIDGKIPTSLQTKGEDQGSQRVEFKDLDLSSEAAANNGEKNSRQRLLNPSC
UniProt Q02485: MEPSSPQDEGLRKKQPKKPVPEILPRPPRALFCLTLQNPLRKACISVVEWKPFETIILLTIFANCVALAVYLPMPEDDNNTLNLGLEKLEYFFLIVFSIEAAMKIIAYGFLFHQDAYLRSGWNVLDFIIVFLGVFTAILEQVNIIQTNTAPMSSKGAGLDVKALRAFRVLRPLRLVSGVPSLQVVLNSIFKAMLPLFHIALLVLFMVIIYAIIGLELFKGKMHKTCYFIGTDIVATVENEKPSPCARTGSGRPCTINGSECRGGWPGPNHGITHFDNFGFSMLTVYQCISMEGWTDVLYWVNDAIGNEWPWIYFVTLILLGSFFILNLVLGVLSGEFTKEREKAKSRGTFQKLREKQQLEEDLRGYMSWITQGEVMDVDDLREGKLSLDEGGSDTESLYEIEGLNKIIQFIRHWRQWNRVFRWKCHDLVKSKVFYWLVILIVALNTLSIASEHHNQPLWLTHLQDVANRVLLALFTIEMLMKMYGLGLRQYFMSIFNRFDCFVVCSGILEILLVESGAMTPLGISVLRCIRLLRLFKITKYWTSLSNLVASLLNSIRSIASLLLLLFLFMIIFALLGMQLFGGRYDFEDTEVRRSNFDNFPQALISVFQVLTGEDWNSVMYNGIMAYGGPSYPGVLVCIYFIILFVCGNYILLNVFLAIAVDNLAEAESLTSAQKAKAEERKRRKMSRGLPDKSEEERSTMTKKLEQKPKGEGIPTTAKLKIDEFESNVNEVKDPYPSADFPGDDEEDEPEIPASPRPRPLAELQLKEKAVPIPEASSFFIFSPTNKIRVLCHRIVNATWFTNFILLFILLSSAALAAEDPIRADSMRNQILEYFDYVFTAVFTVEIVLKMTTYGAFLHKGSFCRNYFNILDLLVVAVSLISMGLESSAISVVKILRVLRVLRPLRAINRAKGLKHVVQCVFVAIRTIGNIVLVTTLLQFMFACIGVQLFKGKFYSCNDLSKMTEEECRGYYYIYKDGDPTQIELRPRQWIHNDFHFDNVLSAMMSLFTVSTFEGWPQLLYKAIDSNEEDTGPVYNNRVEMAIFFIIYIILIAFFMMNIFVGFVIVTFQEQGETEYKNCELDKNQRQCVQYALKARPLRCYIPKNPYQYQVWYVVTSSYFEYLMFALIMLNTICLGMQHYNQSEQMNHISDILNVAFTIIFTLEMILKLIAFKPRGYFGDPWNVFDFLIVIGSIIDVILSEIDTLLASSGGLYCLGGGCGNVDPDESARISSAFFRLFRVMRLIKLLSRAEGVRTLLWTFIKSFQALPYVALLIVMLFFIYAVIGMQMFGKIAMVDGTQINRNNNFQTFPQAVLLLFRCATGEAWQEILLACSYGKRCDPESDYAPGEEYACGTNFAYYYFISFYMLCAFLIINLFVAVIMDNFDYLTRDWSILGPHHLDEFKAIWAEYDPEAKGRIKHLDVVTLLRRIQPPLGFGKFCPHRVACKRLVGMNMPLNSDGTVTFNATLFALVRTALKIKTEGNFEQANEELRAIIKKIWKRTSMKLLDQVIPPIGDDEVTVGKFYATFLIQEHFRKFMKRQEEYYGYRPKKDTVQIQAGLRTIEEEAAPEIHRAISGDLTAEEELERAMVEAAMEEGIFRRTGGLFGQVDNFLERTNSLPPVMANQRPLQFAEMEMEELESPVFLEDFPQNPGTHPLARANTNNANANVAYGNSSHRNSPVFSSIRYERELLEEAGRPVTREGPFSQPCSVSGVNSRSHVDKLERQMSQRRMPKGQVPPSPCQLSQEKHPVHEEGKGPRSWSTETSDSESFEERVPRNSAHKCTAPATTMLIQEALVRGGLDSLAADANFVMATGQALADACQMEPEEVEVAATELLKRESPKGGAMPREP
UniProt P60570: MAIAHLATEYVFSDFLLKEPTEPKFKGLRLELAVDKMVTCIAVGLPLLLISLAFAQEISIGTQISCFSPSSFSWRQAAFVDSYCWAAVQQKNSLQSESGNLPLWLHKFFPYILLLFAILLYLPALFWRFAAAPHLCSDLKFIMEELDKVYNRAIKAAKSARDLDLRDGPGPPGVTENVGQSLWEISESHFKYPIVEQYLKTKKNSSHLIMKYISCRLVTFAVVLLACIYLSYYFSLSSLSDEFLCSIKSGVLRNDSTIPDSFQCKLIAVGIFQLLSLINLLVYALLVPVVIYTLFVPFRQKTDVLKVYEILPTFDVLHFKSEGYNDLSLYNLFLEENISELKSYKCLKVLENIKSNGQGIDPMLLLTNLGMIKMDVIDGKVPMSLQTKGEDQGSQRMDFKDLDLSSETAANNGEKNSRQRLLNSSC
UniProt Q96RD7: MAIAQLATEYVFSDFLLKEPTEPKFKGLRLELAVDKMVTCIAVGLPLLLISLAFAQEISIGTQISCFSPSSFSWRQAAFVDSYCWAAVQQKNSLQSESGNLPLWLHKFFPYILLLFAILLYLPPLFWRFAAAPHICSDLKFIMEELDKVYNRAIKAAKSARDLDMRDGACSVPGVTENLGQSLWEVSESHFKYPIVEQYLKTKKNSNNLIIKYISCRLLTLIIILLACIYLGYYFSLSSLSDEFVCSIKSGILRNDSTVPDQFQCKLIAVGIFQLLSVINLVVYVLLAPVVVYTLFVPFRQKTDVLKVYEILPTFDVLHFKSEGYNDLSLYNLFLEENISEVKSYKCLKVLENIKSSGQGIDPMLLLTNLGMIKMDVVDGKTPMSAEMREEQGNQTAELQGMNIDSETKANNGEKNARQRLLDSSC
UniProt P35383: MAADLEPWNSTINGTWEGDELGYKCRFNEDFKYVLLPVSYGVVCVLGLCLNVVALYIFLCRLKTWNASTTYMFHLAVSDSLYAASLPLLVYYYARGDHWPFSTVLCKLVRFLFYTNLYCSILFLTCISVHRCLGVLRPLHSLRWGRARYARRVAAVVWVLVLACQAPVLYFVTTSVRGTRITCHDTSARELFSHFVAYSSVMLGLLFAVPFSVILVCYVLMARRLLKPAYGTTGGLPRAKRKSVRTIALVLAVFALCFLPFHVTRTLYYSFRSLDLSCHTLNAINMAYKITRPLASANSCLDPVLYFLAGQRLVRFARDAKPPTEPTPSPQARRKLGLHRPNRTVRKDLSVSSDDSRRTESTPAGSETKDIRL
UniProt P41232: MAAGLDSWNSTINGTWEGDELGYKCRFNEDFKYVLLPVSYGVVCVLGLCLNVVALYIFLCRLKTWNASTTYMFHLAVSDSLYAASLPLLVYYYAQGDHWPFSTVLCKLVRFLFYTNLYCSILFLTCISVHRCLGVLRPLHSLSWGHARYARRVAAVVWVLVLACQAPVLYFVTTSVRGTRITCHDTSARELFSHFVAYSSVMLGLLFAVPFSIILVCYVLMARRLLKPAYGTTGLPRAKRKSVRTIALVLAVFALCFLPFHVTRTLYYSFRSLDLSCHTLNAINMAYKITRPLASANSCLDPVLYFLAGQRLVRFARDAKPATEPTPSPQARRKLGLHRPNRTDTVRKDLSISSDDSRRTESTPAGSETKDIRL

Legend:
[1] = target: dihydropyridine receptor (DHPR, Cav1.1), mouse (mouse (endogenous in BalbC/C57 muscle triads and FDB fibers)) (UniProt Q02789); assay: native gel or EMSA; 2D blue native SDS-PAGE of triad samples (rat, BalbC mouse, C57 mouse) solubilized with digitonin; first dimension native 3-8 % gel at 4 °C, second dimension SDS-PAGE after 2-mercaptoethanol; immunoblot, proteins in a same vertical line
[2] = target: pannexin 1 (Panx1), mouse (mouse (endogenous in BalbC/C57 muscle triads and FDB fibers)) (UniProt Q9JIP4); assay: as above
[3] = target: dihydropyridine receptor (DHPR, Cav1.1), mouse (mouse (endogenous in BalbC/C57 muscle triads and FDB fibers)) (UniProt Q02789); assay: proximity ligation; in situ PLA (Duolink II), isolated mouse FDB fibers; dots when the two proteins are closer than 40 nm; confocal z-stacks
[4] = target: dihydropyridine receptor (DHPR, Cav1.1), mouse (mouse (endogenous in BalbC/C57 muscle triads and FDB fibers)) (UniProt Q02789); assay: co-IP; triad-enriched fractions (100 μg protein) from adult BalbC mouse back and hind limb muscles, solubilized in lysis buffer with 0.1 % Nonidet P-40, 140 mM NaCl, pH 7.4; pre-cleared; antibody 4 h, protein A/G agarose; immunoblot
[5] = target: pannexin 1 (Panx1), mouse (mouse (endogenous in BalbC/C57 muscle triads and FDB fibers)) (UniProt Q9JIP4); assay: as above
[6] = target: dihydropyridine receptor (DHPR, Cav1.1), rat (rat (endogenous in rat muscle triads, rat myotubes and L6 cells)) (UniProt Q02485); assay: native gel or EMSA; 2D blue native SDS-PAGE of triad samples (rat, BalbC mouse, C57 mouse) solubilized with digitonin; first dimension native 3-8 % gel at 4 °C, second dimension SDS-PAGE after 2-mercaptoethanol; immunoblot, proteins in a same vertical line
[7] = target: pannexin 1 (Panx1), rat (rat (endogenous in rat muscle triads and rat myotubes)) (UniProt P60570); assay: as above
[8] = target: dihydropyridine receptor (DHPR, Cav1.1), rat (rat (endogenous in rat muscle triads, rat myotubes and L6 cells)) (UniProt Q02485); assay: co-IP; cell extracts from newborn-derived rat myotubes; antibody and protein A/G agarose; immunoblot
[9] = target: pannexin 1 (Panx1), rat (rat (endogenous in rat muscle triads and rat myotubes)) (UniProt P60570); assay: as above
[10] = target: dihydropyridine receptor (DHPR, Cav1.1), rat (rat (endogenous in rat muscle triads, rat myotubes and L6 cells)) (UniProt Q02485); assay: co-IP; whole lysates from L6-Panx1 myotubes; immunoprecipitation with anti-Panx1, anti-DHPR and anti-P2Y2R antibodies; immunoblot
[11] = target: Panx1 fused to the Twin-Strep-tag at the C terminus, in L6-Panx1 cells (UniProt Q96RD7); assay: as above
[12] = target: dihydropyridine receptor (DHPR, Cav1.1), rat (rat (endogenous in rat muscle triads, rat myotubes and L6 cells)) (UniProt Q02485); assay: proximity ligation; in situ PLA (Duolink II), intact L6-Panx1 myotubes; dots when the two proteins are closer than 40 nm
[13] = target: P2Y2 receptor (P2Y2R), mouse (mouse (endogenous in BalbC/C57 muscle triads and FDB fibers)) (UniProt P35383); assay: co-IP; triad-enriched fractions (100 μg protein) from adult BalbC mouse back and hind limb muscles, solubilized in lysis buffer with 0.1 % Nonidet P-40, 140 mM NaCl, pH 7.4; pre-cleared; antibody 4 h, protein A/G agarose; immunoblot
[14] = target: P2Y2 receptor (P2Y2R), rat (rat (endogenous in rat muscle triads, rat myotubes and L6 cells)) (UniProt P41232); assay: co-IP; cell extracts from newborn-derived rat myotubes; antibody and protein A/G agarose; immunoblot
[15] = target: P2Y2 receptor (P2Y2R), rat (rat (endogenous in rat muscle triads, rat myotubes and L6 cells)) (UniProt P41232); assay: co-IP; whole lysates from L6-Panx1 myotubes; immunoprecipitation with anti-Panx1, anti-DHPR and anti-P2Y2R antibodies; immunoblot
[16] = target: dihydropyridine receptor (DHPR, Cav1.1), mouse (mouse (endogenous in BalbC/C57 muscle triads and FDB fibers)) (UniProt Q02789); assay: native gel or EMSA; blue native SDS-PAGE of mouse triads, data not shown
[17] = target: P2Y2 receptor (P2Y2R), mouse (mouse (endogenous in BalbC/C57 muscle triads and FDB fibers)) (UniProt P35383); assay: proximity ligation; in situ PLA (Duolink II), isolated mouse FDB fibers; dots when the two proteins are closer than 40 nm; confocal z-stacks
[18] = target: pannexin 1 (Panx1), mouse (mouse (endogenous in BalbC/C57 muscle triads and FDB fibers)) (UniProt Q9JIP4); assay: as above

Row | Molecule | binding [1] | binding [3] | binding [4] | binding [8] | binding [10] | binding [12] | other results
1 | P2Y2 receptor (P2Y2R), mouse (from UniProt P35383 1-373) | binds | binds | binds |  |  |  | binding [2]: binds; binding [5]: binds
2 | P2Y2 receptor (P2Y2R), rat (from UniProt P41232 1-374) |  |  |  | binds | binds | binds | binding [6]: binds; binding [7]: binds; binding [9]: binds; binding [11]: binds
3 | Panx1 fused to the Twin-Strep-tag at the C terminus, in L6-Panx1 cells (from UniProt Q96RD7 1-426) |  |  |  |  | binds | binds | 
4 | dystrophin (Dys), mouse (from UniProt P11531 1-3678) |  |  | binds |  |  |  | binding [13]: binds; binding [5]: binds
5 | dystrophin (Dys), rat (from UniProt P11530 1-3677) |  |  |  | binds | binds |  | binding [9]: binds; binding [14]: binds; binding [15]: binds; binding [11]: binds
6 | pannexin 1 (Panx1), mouse (from UniProt Q9JIP4 1-426) | binds | binds | binds |  |  |  | 
7 | pannexin 1 (Panx1), rat (from UniProt P60570 1-426) |  |  |  | binds |  |  | binding [6]: binds
8 | ryanodine receptor 1 (RyR1), mouse (from UniProt E9PZQ0 1-5035) |  |  |  |  |  |  | binding [16]: binds
9 | caveolin-3 (Cav3), mouse (protein, UniProt P51637 1-151) MMTEEHTDLEARIIKDIHCKEIDLVNRDPKNINEDIVKVDFEDVIAEPEGTYSFDGVWKVSFTTFTVSKYWCYRLLSTLLGVPLALLWGFLFACISFCHIWAVVPCIKSYLIEIQCISHIYSLCIRTFCNPLFAALGQVCSNIKVVLRREG | binds | binds |  |  |  |  | binding [2]: binds; binding [17]: binds; binding [18]: binds
10 | Lamina-associated polypeptide 2 (Lap2), rat (protein, UniProt Q62733 1-452) MPEFLEDPSVLTKDKLKSELVANNVTLPAGEQRKDVYVQLYLQHLTARNRPPLAAGANSKGPPDFSSDEEREPTPVLGSGASVGRGRGAVGRKATKKTDKPRPEDKDDLDVTELSNEELLEQLVRYGVNPGPIVGTTRKLYEKKLLKLREQGAESRSSTPLPTVSSSAENTRQNGSNDSDRYSDNDEDSKIELKLEKREPLKGRAKTPVTLKQRRIEHNQSYSEAGVTETEWTSGSSKGGPLQALTRESTRGSRRTPRRRVEPSQHFRVDGAVISESTPIAETIKASSNDSLVANRLTGNFKHASSILPITEFSDITRRTPKKPLTRAEVGEKTEERRVERDILKEMFPYEASTPTGISASCRRPIKGAAGRPLELSDFRMEESFSSKYVPKYVPLADVKSEKTKKGRSVPMWIKMLLFALVAGFLFLVYQAMETNQGNPFTNFLQDTKISN |  |  |  |  |  | no binding | 
